Source: article PMC3128097
No constants are given. Whether binding was seen depends on the method and setting. Binding calls can cover weak binding; strength is not graded here.

Assays:
Assay in all cases: two-hybrid; directed yeast two-hybrid, ProQuest Two-Hybrid System (vectors pDEST22 and pDEST32), full length coding regions; X-Gal assay on nitrocellulose membranes with yeast colonies
[1] = target: T1, Arabidopsis NF-YC3 (Arabidopsis thaliana) (UniProt Q9ZVL3)
T1 sequence: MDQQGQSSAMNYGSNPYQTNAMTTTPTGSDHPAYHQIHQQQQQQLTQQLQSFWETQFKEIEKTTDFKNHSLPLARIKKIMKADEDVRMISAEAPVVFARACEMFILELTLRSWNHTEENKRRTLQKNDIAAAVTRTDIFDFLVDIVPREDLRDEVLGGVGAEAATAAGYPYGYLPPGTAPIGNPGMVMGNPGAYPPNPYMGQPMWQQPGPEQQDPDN

[2] = target: T2, Arabidopsis NF-YC4 (Arabidopsis thaliana) (UniProt Q9FMV5)
T2 sequence: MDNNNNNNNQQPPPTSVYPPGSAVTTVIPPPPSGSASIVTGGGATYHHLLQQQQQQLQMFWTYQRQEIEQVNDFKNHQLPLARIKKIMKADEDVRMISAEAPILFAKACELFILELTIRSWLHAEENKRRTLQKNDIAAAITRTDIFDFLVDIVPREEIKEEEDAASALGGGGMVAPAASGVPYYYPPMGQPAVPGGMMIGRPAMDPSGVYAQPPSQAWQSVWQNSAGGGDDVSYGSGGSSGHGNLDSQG

[3] = target: T3, Arabidopsis NF-YC9 (Arabidopsis thaliana) (UniProt Q8L4B2)
T3 sequence: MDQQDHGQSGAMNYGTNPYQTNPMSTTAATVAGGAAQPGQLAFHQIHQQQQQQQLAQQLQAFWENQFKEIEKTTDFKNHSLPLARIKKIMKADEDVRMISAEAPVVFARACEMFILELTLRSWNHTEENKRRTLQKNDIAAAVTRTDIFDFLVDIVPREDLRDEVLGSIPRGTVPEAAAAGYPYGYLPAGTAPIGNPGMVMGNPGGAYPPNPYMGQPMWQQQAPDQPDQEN

Measured: binding

BdNF-YB6 (Brachypodium distachyon NF-YB6, Bradi1g60030)
binds: all assays above

BdNF-YB3 (Brachypodium distachyon NF-YB3, Bradi1g43470)
binds: all assays above
